Here are results for 1 molecule from article PMC6423145.

Sequences of proteins named here, by UniProt entry; tags and fusion partners are left off. A change or cut given only in a name is not applied to a line headed by its entry.
UniProt Q9UHP3: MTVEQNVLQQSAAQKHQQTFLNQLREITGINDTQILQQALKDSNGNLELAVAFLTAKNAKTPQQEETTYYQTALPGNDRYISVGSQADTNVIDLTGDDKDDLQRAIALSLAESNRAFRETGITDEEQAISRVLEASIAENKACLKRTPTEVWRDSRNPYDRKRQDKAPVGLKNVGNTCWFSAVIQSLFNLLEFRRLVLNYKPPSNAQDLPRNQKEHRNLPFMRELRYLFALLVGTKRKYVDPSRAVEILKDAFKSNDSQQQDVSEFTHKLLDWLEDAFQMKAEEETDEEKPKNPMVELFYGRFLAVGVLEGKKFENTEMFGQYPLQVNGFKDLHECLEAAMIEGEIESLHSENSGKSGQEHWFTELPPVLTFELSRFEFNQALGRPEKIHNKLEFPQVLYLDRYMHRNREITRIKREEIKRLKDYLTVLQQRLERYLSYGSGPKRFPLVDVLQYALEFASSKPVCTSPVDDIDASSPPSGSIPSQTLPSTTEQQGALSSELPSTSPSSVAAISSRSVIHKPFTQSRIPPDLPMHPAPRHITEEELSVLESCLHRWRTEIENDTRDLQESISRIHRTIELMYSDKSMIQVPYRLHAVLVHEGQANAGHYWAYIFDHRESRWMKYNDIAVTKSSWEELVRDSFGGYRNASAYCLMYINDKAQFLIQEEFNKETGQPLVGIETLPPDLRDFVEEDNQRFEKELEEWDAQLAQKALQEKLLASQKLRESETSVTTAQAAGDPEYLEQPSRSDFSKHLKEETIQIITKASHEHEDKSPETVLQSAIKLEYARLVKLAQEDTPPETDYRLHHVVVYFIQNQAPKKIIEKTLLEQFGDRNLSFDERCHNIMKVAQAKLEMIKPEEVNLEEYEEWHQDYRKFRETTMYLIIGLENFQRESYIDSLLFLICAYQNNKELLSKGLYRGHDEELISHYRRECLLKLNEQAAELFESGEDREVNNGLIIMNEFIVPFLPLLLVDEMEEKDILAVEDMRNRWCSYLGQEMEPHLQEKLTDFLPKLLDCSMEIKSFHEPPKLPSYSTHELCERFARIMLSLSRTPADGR

These are yes or no findings as the source states them, for the method shown. In cells and extracts the contact can be indirect. Some binding calls cover weakened binding; strength is not graded here.

One test addresses GST-USP25 (UniProt Q9UHP3). Nature of the test: pull-down; 10 μg of each GST fusion immobilised on Sepharose beads, incubated with 3T3-L1 adipocyte lysate (4 mg total protein in 400 μl); TNKS detected by immunoblot; only the target purified. (In general: In western blotting, separated proteins are transferred to a membrane and probed.)
The next test concerns the target GST-USP25-R1049A (UniProt Q9UHP3). Described as above.

B1: tankyrase (TNKS), endogenous in 3T3-L1 adipocytes (protein, UniProt Q6PFX9 1-1320)
chain: MAASRRSQHHHHHHQQQLQPAPGASAPPPPPPPPLSPGLAPGPTPASPTAGGLAPFASPRHGLALPEGDGSRDPPDRPRSPDPVDGAVCTVAAPAAVPAASAAVGVAPTPAGGGGGGGNNSASSASSPTSSSSSSPSSPGSSLAESPEAAGVGSTATLGAGAAGLGPGVPAVSGALRELLEACRNGDVSRVKRLVDAANVNAKDMAGRKSSPLHFAAGFGRKDVVEHLLQMGANVHARDDGGLIPLHNACSFGHAEVVSLLLCQGADPNARDNWNYTPLHEAAIKGKIDVCIVLLQHGADPNIRNTDGKSALDLADPSAKAVLTGEYKKDELLEAARSGNEEKLMALLTPLNVNCHASDGRKSTPLHLAAGYNRVRIVQLLLQHGADVHAKDKGGLVPLHNACSYGHYEVTELLLKHGACVNAMDLWQFTPLHEAASKNRVEVCSLLLSHGADPTLVNCHGKSAVDMAPTPELRERLTYEFKGHSLLQAAREADLAKVKKTLALEIINFKQPQSHETALHCAVASLHPKRKQVAELLLRKGANVNEKNKDFMTPLHVAAERAHNDVMEVLHKHGAKMNALDSLGQTALHRAALAGHLQTCRLLLSYGSDPSIISLQGFTAAQMGNEAVQQILSESTPMRTSDVDYRLLEASKAGDLETVKQLCSPQNVNCRDLEGRHSTPLHFAAGYNRVSVVEYLLHHGADVHAKDKGGLVPLHNACSYGHYEVAELLVRHGASVNVADLWKFTPLHEAAAKGKYEICKLLLKHGADPTKKNRDGNTPLDLVKEGDTDIQDLLRGDAALLDAAKKGCLARVQKLCTPENINCRDTQGRNSTPLHLAAGYNNLEVAEYLLEHGADVNAQDKGGLIPLHNAASYGHVDIAALLIKYNTCVNATDKWAFTPLHEAAQKGRTQLCALLLAHGADPTMKNQEGQTPLDLATADDIRALLIDAMPPEALPTCFKPQATVVSASLISPASTPSCLSAASSIDNLTGPLTDLAVGGASNAGDGAAGAERKEGEVAGLDMNISQFLKSLGLEHLRDIFETEQITLDVLADMGHEELKEIGINAYGHRHKLIKGVERLLGGQQGTNPYLTFHCVNQGTILLDLAPEDKEYQSVEEEMQSTIREHRDGGNAGGIFNRYNVIRIQKVVNKKLRERFCHRQKEVSEENHNHHNERMLFHGSPFINAIIHKGFDERHAYIGGMFGAGIYFAENSSKSNQYVYGIGGGTGCPTHKDRSCYICHRQMLFCRVTLGKSFLQFSTMKMAHAPPGHHSVIGRPSVNGLAYAEYVIYRGEQAYPEYLITYQIMKPEAPSQTATAAEQKT
For the molecule B1, the results for the binding entry with GST-USP25 and in the test with GST-USP25-R1049A were “binds” and “no binding”, respectively.
